Consider 42 targets from the supplement of paper PMC12067093, “Discovery and optimisation of a covalent ligand for TRIM25 and its application to targeted protein ubiquitination” (Chemical Science, 2025).

Compound in this assay: Cc1cc(ccc1-c1ccccc1)C(=O)N1CCCN(CC1)C(=O)CCl [compound 10]
Description: probe-labelled cysteine peptide fold change vs DMSO (competition) (log2 fold change); higher = less target engagement (more negative = stronger competition). As to conditions: THP-1, incubation time: 4 h.

The list shows a part of the results.
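Note: competitive profiling in live THP-1 cells: cysteine peptides tagged with an iodoacetamide desthiobiotin (IA-DTB) probe, intensity after compound treatment relative to DMSO-treated cells.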

Regarding “GMPPA_Q96IJ6_335_LRESIVLHGATLQEHTCVLHSIVGWGSTVGR (UniProt Q96IJ6)”, the “probe-labelled cysteine peptide fold change” value (10 µM) came out at 0.102 and the “probe-labelled cysteine peptide fold change” value (50 µM) is -0.132.

On to “GLE1_Q53GS7_287_GNQLCSLISGIIR (UniProt Q53GS7)”, for which the “probe-labelled cysteine peptide fold change” value (10 µM) was found to be 0.0931 and the “probe-labelled cysteine peptide fold change” value (50 µM) amounted to 0.0539.

For “GLA_P06280_382_GVACNPACFITQLLPVKR (UniProt P06280)”, the “probe-labelled cysteine peptide fold change” value is, setting by setting: (10 µM) 0.208; (50 µM) 0.0432.

As to “GNS_P15586_518_LMMLQSCSGPTCR (UniProt P15586)”, the “probe-labelled cysteine peptide fold change” value (10 µM) came out at 0.171 and the “probe-labelled cysteine peptide fold change” value (50 µM) is -0.0586.

Turning to “GNPTG_Q9UJJ9_142_VELACGK (UniProt Q9UJJ9)”, the “probe-labelled cysteine peptide fold change” value was -0.307 (10 µM) and 0.0807 (50 µM).

For the target “GMIP_Q9P107_571_CTAEIEHR (UniProt Q9P107)”, the “probe-labelled cysteine peptide fold change” value runs as follows: (10 µM) 0.206; (50 µM) 0.262.

On to “GLB1_P16278_393_TVGAALDILCPSGPIK (UniProt P16278)”, for which the “probe-labelled cysteine peptide fold change” value reads like this: (10 µM) 0.0498; (50 µM) 0.0401.

Regarding “GLYR1_Q49A26_356_CYVDMSTVDADTVTELAQVIVSR (UniProt Q49A26)”, the “probe-labelled cysteine peptide fold change” value is, setting by setting: (10 µM) 0.772; (50 µM) 0.446.

With “GPC4_O75487_341_VFQGCGPPK (UniProt O75487)”, the “probe-labelled cysteine peptide fold change” value was -0.24 (10 µM) and -0.0603 (50 µM).

Take “GNB2_P62879_294_LLLAGYDDFNCNIWDAMK (UniProt P62879)”: the “probe-labelled cysteine peptide fold change” value was 0.0495 (10 µM) and 0.0696 (50 µM).

As to “GLG1_Q92896_324_FCENTQAGEGR (UniProt Q92896)”, the “probe-labelled cysteine peptide fold change” value by setting is: (10 µM) 0.0452; (50 µM) 0.102.

Consider “GMPR2_Q9P2T1_348_VTQQVNPIFSEAC (UniProt Q9P2T1)”, for which the “probe-labelled cysteine peptide fold change” value by setting is: (10 µM) -0.349; (50 µM) -0.396.

In the case of “GNAQ_P50148_144_SLWNDPGIQECYDR (UniProt P50148)”, the “probe-labelled cysteine peptide fold change” value (10 µM) was -0.0786 and the “probe-labelled cysteine peptide fold change” value (50 µM) is -0.108.

Regarding “GLB1_P16278_426_TTLPQDCSNPAPLSSPLNGVHDR (UniProt P16278)”, the “probe-labelled cysteine peptide fold change” value runs as follows: (10 µM) -0.115; (50 µM) 0.304.

As to GLG1_Q92896_767_LCPNIK (UniProt Q92896), the “probe-labelled cysteine peptide fold change” value was -0.296 (10 µM) and 0.29 (50 µM).

On to “GPKOW_Q92917_137_GCTPSGEGADSEPR (UniProt Q92917)”, for which the “probe-labelled cysteine peptide fold change” value is, setting by setting: (10 µM) -0.229; (50 µM) -0.14.

As to “GMIP_Q9P107_525_ECEAFMVSGTECEECFLTCHK (UniProt Q9P107)”, the “probe-labelled cysteine peptide fold change” value was determined as 0.0436 (10 µM) and 0.0809 (50 µM).

In the case of “GNA13_Q14344_318_DYFLEFEGDPHCLR (UniProt Q14344)”, the “probe-labelled cysteine peptide fold change” value (10 µM) came to 0.243 and the “probe-labelled cysteine peptide fold change” value (50 µM) worked out at 0.0399.

Consider “GNAI3_P08754_139_DGGVQACFSR (UniProt P08754)”, for which the “probe-labelled cysteine peptide fold change” value is -0.0878 (10 µM) and 0.0749 (50 µM).

Take “GLG1_Q92896_385_CNVENLPR (UniProt Q92896)”: the “probe-labelled cysteine peptide fold change” value by setting is: (10 µM) -0.21; (50 µM) 0.0626.

Turning to “GMPPA_Q96IJ6_389_LLPAITILGCR (UniProt Q96IJ6)”, the “probe-labelled cysteine peptide fold change” value is 0.222 (10 µM) and -0.155 (50 µM).

As for “GLG1_Q92896_316_HLYFACR (UniProt Q92896)”, the “probe-labelled cysteine peptide fold change” value was -0.00226 (10 µM) and 0.17 (50 µM).

As for “GMIP_Q9P107_508_ECEAFMVSGTECEECFLTCHK (UniProt Q9P107)”, the “probe-labelled cysteine peptide fold change” value by setting is: (10 µM) -0.25; (50 µM) -0.091.

“GNPDA2_Q8TDQ7_118_HIDIDPNNAHILDGNAADLQAECDAFENK (UniProt Q8TDQ7)”: the “probe-labelled cysteine peptide fold change” value (10 µM) is -0.108 and the “probe-labelled cysteine peptide fold change” value (50 µM) was determined as 0.27.

On to “GLOD4_Q9HC38_269_ATVQVVILADPDGHEICFVGDEAFR (UniProt Q9HC38)”, for which the “probe-labelled cysteine peptide fold change” value reads like this: (10 µM) 0.114; (50 µM) 0.438.

“GNPNAT1_Q96EK6_150_KLNCYK (UniProt Q96EK6)”: the “probe-labelled cysteine peptide fold change” value runs as follows: (10 µM) -0.301; (50 µM) 0.159.

As to “GLG1_Q92896_155_HTWSNNLAVLECLQDVREPENEISSDCNHLLWNYK (UniProt Q92896)”, the “probe-labelled cysteine peptide fold change” value reads like this: (10 µM) -0.224; (50 µM) 0.237.

In the case of “GMEB1_Q9Y692_274_GIADVGLMEEVVCNIQK (UniProt Q9Y692)”, the “probe-labelled cysteine peptide fold change” value (10 µM) was 0.0817 and the “probe-labelled cysteine peptide fold change” value (50 µM) was -0.179.

On to “GPD1L_Q8N335_104_ICDEITGR (UniProt Q8N335)”, for which the “probe-labelled cysteine peptide fold change” value was 0.018 (10 µM) and 0.114 (50 µM).

For “GM2A_P17900_138_TYGLPCHCPFK (UniProt P17900)”, the “probe-labelled cysteine peptide fold change” value (10 µM) was found to be 0.19 and the “probe-labelled cysteine peptide fold change” value (50 µM) came to 0.189.

With “GPATCH1_Q9BRR8_485_AQLSPAAAAGHCSWNMALGGGTATLK (UniProt Q9BRR8)”, the “probe-labelled cysteine peptide fold change” value runs as follows: (10 µM) -0.0776; (50 µM) -1.25.

GPC3_P51654_72_GPTCCSR (UniProt P51654): the “probe-labelled cysteine peptide fold change” value is -0.171 (10 µM) and -0.229 (50 µM).

Take “GLUD1_P00367_376_PYEGSILEADCDILIPAASEK (UniProt P00367)”: the “probe-labelled cysteine peptide fold change” value is, setting by setting: (10 µM) -0.111; (50 µM) 0.297.

“GLS_O94925_518+525_GIHFCHDLVSLCNFHNYDNLR (UniProt O94925)”: the “probe-labelled cysteine peptide fold change” value is, setting by setting: (10 µM) 0.00116; (50 µM) -0.0408.

For “GMEB2_Q9UKD1_323_DLAALEQQCDEHR (UniProt Q9UKD1)”, the “probe-labelled cysteine peptide fold change” value runs as follows: (10 µM) 0.0795; (50 µM) -0.191.

As to “GMDS_O60547_237_IYLGQLECFSLGNLDAK (UniProt O60547)”, the “probe-labelled cysteine peptide fold change” value (10 µM) worked out at 0.00025 and the “probe-labelled cysteine peptide fold change” value (50 µM) was -0.0367.

With “GNL3_Q9BVP2_158_CPQVEEAIVQSGQK (UniProt Q9BVP2)”, the “probe-labelled cysteine peptide fold change” value was -0.0215 (10 µM) and -0.136 (50 µM).

“GLG1_Q92896_1071_ADIFVDPVLHTACALDIK (UniProt Q92896)”: the “probe-labelled cysteine peptide fold change” value (10 µM) was -0.343 and the “probe-labelled cysteine peptide fold change” value (50 µM) was -0.187.

“GLO1_Q04760_139_GFGHIGIAVPDVYSACK (UniProt Q04760)”: the “probe-labelled cysteine peptide fold change” value was -0.0322 (10 µM) and 0.0591 (50 µM).

For “GOLPH3_Q9H4A6_108_LQLEACGMR (UniProt Q9H4A6)”, the “probe-labelled cysteine peptide fold change” value by setting is: (10 µM) -0.273; (50 µM) -0.0492.

For the target “GMIP_Q9P107_529_CLETLLILCGHR (UniProt Q9P107)”, the “probe-labelled cysteine peptide fold change” value (10 µM) stood at 0.0572 and the “probe-labelled cysteine peptide fold change” value (50 µM) stood at 0.116.

With “GMPS_P49915_489_ACTTEEDQEK (UniProt P49915)”, the “probe-labelled cysteine peptide fold change” value reads like this: (10 µM) 0.00335; (50 µM) -0.0471.
